Source: the supplement of paper PMC10849652
The other results are listed elsewhere or left out.

By UniProt entry, the sequences of proteins in these tests, tags left out. Where a name states a change or a piece, a line headed by the entry shows the natural chain unless it says otherwise.
UniProt Q9BVM4: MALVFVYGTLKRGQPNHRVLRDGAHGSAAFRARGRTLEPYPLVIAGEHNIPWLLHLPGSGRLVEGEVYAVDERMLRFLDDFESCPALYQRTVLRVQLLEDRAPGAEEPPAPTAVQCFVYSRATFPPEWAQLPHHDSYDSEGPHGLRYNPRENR
UniProt Q96D09: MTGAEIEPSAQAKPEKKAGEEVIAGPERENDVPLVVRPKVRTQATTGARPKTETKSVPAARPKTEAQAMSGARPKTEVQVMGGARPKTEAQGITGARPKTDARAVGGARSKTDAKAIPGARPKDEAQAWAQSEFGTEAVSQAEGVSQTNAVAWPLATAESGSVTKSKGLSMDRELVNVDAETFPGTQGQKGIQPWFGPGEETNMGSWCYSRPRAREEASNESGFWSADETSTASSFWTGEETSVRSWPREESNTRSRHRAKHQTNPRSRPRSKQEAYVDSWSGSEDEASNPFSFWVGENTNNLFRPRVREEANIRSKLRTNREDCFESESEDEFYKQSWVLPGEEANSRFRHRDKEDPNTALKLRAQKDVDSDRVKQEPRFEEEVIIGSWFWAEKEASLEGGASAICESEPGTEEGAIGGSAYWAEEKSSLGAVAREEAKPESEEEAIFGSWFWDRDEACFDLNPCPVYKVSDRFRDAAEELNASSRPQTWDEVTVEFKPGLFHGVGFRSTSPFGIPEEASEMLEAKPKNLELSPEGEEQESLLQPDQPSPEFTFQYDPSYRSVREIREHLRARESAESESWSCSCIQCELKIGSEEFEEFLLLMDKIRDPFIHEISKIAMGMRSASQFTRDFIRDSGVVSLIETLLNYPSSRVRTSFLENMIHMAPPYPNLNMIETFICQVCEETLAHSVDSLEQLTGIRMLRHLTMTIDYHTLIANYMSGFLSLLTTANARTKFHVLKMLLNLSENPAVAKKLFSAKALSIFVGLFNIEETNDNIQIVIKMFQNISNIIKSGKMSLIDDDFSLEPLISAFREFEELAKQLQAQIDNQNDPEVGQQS
UniProt P80108: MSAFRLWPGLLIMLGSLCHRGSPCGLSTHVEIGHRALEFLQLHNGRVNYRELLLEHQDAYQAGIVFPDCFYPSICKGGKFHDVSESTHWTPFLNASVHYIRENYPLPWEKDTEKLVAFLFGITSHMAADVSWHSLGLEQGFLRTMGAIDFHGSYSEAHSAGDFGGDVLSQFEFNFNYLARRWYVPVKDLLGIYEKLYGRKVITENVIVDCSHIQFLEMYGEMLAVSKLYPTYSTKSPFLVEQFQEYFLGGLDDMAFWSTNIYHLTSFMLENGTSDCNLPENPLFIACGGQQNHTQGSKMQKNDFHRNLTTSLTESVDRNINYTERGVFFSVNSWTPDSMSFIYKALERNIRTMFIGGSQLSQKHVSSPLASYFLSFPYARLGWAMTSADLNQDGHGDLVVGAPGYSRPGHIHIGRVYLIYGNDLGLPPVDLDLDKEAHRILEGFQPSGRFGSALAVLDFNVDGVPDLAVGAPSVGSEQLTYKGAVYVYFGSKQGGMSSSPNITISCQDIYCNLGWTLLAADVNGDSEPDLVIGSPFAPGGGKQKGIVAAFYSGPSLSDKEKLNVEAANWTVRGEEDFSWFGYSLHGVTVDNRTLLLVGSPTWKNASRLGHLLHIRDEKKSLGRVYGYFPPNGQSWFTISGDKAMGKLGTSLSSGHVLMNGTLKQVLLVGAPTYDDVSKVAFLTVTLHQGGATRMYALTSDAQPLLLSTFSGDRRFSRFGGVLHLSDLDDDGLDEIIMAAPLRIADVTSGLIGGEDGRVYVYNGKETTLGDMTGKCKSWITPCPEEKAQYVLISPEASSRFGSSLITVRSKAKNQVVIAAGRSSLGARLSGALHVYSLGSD
UniProt Q5JWF2, whole entry, looked up: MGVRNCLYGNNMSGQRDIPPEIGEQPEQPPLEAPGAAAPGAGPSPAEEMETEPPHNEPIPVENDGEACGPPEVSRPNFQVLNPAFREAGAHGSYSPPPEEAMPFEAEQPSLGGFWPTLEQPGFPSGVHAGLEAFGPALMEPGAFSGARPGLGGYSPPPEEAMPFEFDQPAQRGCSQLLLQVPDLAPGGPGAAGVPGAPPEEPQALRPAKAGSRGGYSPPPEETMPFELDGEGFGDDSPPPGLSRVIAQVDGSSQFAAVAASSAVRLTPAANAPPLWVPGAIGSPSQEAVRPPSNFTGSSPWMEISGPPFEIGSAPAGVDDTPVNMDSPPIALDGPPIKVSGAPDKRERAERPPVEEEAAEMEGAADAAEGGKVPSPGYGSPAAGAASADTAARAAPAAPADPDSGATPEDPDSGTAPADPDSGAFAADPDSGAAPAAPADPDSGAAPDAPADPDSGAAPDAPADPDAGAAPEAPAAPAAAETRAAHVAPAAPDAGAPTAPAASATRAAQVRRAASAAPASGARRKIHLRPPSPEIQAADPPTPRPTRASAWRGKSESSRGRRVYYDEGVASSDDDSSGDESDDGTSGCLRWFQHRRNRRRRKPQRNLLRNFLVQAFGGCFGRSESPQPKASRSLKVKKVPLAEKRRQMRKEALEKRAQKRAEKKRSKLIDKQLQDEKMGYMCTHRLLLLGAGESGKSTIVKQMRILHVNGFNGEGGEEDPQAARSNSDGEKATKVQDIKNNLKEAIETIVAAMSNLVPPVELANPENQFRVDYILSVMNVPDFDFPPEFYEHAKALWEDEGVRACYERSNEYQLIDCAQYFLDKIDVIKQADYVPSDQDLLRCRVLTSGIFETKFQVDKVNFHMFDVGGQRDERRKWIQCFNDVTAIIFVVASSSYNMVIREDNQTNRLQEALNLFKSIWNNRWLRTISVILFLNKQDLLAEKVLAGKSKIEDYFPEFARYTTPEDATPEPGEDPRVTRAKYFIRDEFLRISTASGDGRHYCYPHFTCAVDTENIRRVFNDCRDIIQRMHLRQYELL
UniProt Q9NZD2: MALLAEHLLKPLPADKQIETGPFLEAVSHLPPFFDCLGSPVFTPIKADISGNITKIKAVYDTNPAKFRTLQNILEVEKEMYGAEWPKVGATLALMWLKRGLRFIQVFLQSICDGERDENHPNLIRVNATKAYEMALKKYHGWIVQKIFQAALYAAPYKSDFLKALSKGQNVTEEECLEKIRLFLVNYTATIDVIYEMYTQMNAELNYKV
UniProt P23378: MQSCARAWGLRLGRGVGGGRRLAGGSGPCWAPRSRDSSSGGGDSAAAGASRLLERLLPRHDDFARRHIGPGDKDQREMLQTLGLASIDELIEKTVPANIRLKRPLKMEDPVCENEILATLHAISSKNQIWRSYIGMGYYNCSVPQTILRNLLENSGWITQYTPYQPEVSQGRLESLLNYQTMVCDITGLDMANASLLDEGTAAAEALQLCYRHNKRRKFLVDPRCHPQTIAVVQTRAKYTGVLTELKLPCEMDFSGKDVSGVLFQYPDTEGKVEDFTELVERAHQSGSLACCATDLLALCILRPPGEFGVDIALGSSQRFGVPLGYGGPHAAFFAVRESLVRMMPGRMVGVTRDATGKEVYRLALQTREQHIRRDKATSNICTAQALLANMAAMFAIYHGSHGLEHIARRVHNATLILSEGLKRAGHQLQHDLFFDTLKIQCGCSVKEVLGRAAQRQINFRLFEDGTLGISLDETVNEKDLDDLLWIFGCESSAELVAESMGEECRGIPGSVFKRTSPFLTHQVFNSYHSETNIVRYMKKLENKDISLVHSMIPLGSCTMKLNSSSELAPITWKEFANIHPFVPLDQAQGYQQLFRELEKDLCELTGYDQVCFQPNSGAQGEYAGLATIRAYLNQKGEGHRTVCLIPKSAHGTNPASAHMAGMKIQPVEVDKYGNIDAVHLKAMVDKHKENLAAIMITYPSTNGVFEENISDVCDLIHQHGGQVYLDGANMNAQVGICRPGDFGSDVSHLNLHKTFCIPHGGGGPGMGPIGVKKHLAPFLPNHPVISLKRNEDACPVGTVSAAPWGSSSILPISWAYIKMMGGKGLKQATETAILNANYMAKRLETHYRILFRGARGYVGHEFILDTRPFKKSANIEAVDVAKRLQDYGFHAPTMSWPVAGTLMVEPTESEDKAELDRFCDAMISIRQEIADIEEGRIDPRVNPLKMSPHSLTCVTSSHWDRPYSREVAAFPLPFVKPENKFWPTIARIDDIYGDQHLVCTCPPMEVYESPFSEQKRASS
UniProt Q13439: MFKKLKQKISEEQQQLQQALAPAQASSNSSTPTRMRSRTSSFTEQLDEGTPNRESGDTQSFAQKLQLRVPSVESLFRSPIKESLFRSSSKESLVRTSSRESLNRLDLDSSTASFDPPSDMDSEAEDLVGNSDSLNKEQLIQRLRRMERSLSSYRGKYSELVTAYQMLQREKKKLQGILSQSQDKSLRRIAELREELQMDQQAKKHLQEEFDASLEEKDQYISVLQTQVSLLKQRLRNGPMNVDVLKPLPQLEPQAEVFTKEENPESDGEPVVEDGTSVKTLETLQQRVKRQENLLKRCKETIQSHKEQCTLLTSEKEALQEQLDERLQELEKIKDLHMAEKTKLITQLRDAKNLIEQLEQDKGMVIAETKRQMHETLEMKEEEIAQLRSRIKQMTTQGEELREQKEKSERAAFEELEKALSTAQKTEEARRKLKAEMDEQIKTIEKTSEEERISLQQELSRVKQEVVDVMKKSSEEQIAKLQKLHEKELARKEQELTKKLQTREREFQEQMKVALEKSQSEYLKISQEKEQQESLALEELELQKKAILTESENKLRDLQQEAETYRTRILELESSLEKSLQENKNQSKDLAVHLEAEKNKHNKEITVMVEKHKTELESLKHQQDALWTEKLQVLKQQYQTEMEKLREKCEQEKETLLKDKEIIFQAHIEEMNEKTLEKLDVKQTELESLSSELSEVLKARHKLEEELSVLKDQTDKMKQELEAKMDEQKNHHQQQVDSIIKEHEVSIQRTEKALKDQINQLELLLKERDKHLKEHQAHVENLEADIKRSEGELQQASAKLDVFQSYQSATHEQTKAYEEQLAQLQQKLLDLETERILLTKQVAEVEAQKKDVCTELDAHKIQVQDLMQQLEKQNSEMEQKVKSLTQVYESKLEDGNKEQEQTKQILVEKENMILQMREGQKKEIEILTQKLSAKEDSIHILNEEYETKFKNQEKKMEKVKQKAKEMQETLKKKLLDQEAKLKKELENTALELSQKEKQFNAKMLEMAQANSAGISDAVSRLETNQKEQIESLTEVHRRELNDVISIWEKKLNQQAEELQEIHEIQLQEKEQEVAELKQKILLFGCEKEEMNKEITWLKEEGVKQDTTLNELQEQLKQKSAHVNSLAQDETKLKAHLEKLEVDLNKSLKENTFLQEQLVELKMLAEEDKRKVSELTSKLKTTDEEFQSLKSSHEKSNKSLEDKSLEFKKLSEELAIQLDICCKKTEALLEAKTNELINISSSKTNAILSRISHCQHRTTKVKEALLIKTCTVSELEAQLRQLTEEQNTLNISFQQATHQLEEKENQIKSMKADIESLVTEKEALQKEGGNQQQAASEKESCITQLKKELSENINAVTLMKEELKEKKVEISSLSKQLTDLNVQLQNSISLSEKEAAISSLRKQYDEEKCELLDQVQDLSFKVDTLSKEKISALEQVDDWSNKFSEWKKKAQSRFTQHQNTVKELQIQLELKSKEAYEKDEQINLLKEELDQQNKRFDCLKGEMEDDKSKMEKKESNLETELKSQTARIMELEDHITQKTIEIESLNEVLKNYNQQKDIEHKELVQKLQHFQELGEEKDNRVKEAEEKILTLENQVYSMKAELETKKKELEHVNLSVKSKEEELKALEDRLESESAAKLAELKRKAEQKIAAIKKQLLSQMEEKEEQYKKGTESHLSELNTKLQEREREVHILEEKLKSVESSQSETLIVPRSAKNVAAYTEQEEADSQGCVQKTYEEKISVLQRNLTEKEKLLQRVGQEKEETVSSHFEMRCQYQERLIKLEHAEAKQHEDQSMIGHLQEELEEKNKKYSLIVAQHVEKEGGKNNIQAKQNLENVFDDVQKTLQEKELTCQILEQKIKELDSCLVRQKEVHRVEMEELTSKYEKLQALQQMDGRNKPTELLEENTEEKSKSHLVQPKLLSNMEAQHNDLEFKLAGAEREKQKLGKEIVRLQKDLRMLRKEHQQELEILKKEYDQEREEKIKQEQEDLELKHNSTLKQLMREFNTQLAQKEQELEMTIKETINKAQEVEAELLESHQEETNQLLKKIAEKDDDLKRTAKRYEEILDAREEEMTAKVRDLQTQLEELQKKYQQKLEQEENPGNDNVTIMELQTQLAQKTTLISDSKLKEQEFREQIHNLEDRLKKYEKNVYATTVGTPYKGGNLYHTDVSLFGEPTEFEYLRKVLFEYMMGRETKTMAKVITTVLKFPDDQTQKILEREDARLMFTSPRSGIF

Key:
Assay in all cases: log2 fold change, soluble protein after heating vs DMSO (PISA); higher = thermal stabilisation; K562 lysate, 10 uM; active = over 0.2 and 3.5 SD of the protein, either way, in both replicates (recomputed)
[1] = compound: C#Cc1cccc(Nc2ncnc3cc(OCCOC)c(OCCOC)cc23)c1 [erlotinib]
Method in brief: (§1)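 Quantification was by TMTpro 16plex LC-MS/MS with equalised channel sums, applied to the supernatant after 21,000xg for 90 min. Samples were crude K562 extract at 1 mg/mL protein in PBS pH 7.4 with 1 mM MgCl2, treated with 10 μM compound for 30 min, heated for 3 min across 48°C-58°C, pooled and brought to 0.5% NP-40 at 4°C. Values are log-two fold changes in thermal stability relative to solvent controls, from duplicates.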

[2] = compound: C/C(=N\NC(=O)C1=CC(=CC=C1)S(=O)(=O)N2CCOCC2)/C3=C(C=CC(=C3)Cl)O
Method in brief: as §1

[3] = compound: C1=CC(=CC=C1C2=NC3=C(N2)C=C(C=C3)C(=O)N)OC4=CC=C(C=C4)Cl
Method in brief: as §1

[4] = compound: C1=CC2=C(C=CC(=C2)/C=C\3/C(=O)NC(=NCC4=CC=CS4)S3)N=C1
Method in brief: as §1

[5] = compound: C1=CC2=NC=CN=C2C=C1/C=C/3\C(=O)NC(=O)S3
Method in brief: as §1

[6] = compound: C1=CC=C(C=C1)C2=NC(=C(N2)C3=CC=NC=C3)C4=CC(=C(C=C4)Cl)O
Method in brief: as §1

[7] = compound: C1=CC=C2C(=C1)C3=NNC4=CC=CC(=C43)C2=O
Method in brief: as §1

[8] = compound: C1CCN(C1)C(=O)NC2=CC=CC(=C2)NC3=NC=C(C(=N3)NCCC4=CN=CN4)Br
Method in brief: as §1

[9] = compound: C1CN(CCC1(CC2=CC=C(C=C2)Cl)N)C3=NC=NC4=C3C=CN4
Method in brief: as §1

[10] = compound: C1COCCN1CCN2C3=CC=CC=C3N=C2NC(=O)C4=CC(=CC=C4)[N+](=O)[O-] [IRAK-1-4 Inhibitor I]
Method in brief: as §1

[11] = compound: C=CC(=O)N1CCC[C@@H](n2nc(-c3ccc(Oc4ccccc4)cc3)c3c(N)ncnc32)C1 [ibrutinib]
Method in brief: as §1

[12] = compound: CC(=O)c1cnc2ccc(-c3cc(Cl)c(O)c(Cl)c3)nc2c1N[C@H]1CC[C@H](CN(C)C)CC1
Method in brief: as §1

[13] = compound: CC(C)(C)Cn1c(N)nc2ccc(-c3[nH]c(C(C)(C)C)nc3-c3ccc(F)cc3)nc21 [ralimetinib]
Method in brief: as §1

[14] = compound: CC(C)(O)CC(=O)NCCn1ccc2ncnc(Nc3ccc(Oc4cccc(C(F)(F)F)c4)c(Cl)c3)c21
Method in brief: as §1

[15] = compound: CC(C)C1=C2N=C(C=C(N2N=C1)NCC3=CC=CC=C3)NCCCCCCN
Method in brief: as §1

[16] = compound: CC1=C(C2=C(C=C1)C(=O)C3=CC=CC=C3N2CCCN)C
Method in brief: as §1

[17] = compound: CC1=C(C=C(C=C1)NC(=O)C2=CC(=CC=C2)C(C)(C)C#N)NC3=CC4=C(C=C3)N=CN(C4=O)C
Method in brief: as §1

[18] = compound: CC1=C(C=C(C=C1)NC(=O)C2=CC(=CC=C2)N(C)C)NC(=O)C3=CC=C(C=C3)O
Method in brief: as §1

[19] = compound: CC1=CC=C(C=C1)SC2=C3C=C(SC3=CN=C2)C(=O)N
Method in brief: as §1

[20] = compound: CC1=C(C(CC(=O)N1)C2=CC=C(C=C2)C(F)(F)F)C(=O)NC3=C(C=C4C(=C3)C=NN4)F
Method in brief: as §1

Measured: log2 fold change

GGACT (UniProt Q9BVM4)
inactive: [1] -0.007 | [2] -0.198 | [3] 0.022 | [4] -0.046 | [5] -0.028 | [6] -0.004 | [7] -0.117 | [8] -0.041 | [9] 0.044 | [10] 0.039 | [11] 0.026 | [12] 0.03 | [13] 0.033 | [14] 0.002 | [15] -0.009 | [16] -0.053 | [17] 0.117 | [18] 0.004 | [19] -0.015

GPRASP2 (UniProt Q96D09)
inactive: [2] -0.015 | [4] -0.075 | [5] 0.071 | [6] -0.008 | [7] 0.061 | [8] -0.115 | [9] 0.048 | [10] 0.111 | [11] 0.1 | [13] -0.072 | [14] -0.123 | [20] 0.02 | [18] -0.17

GPSM1 (UniProt Q86YR5)
inactive: [1] -0.012 | [2] -0.141 | [3] -0.049 | [4] -0.045 | [7] -0.027 | [8] 0.135 | [9] 0.083 | [15] 0.058 | [17] 0.074

GIPC3 (UniProt Q8TF64)
inactive: [1] -0.049 | [3] 0.091 | [5] -0.025 | [6] 0.063 | [8] 0.008 | [9] 0.139 | [10] 0.101 | [11] -0.021 | [12] -0.078 | [13] -0.019 | [14] -0.011 | [15] 0.022 | [20] 0.282 | [16] -0.019 | [17] 0.185 | [18] -0.033 | [19] -0.13

GPLD1 (UniProt P80108)
inactive: [16] -0.058 | [17] -0.187

GMEB1 isoform 2 (UniProt Q9Y692)
inactive: [6] -0.484 | [10] -0.116 | [13] 0.058 | [14] -0.077 | [20] 0.073 | [17] 0.043 | [18] -0.071

GNPDA2 (UniProt Q8TDQ7)
inactive: [1] -0.006 | [2] 0.038 | [3] 0.012 | [4] -0.008 | [5] -0.025 | [6] 0.058 | [7] 0.122 | [8] -0.076 | [9] -0.008 | [10] 0.004 | [11] -0.017 | [12] -0.02 | [13] 0.028 | [14] 0 | [15] -0.006 | [20] -0.026 | [16] -0.031 | [17] 0.001 | [18] 0 | [19] 0.018

GNAS isoform 2 (UniProt Q5JWF2)
inactive: [5] 0.009 | [11] 0.027

GLTP (UniProt Q9NZD2)
inactive: [1] -0.029 | [2] 0.024 | [3] -0.003 | [4] -0.015 | [5] -0.107 | [6] -0.049 | [7] 0.001 | [8] 0.013 | [9] 0.068 | [10] 0.017 | [11] 0.079 | [12] 0.006 | [13] -0.002 | [14] -0.079 | [15] 0.028 | [16] -0.069 | [17] 0.084 | [18] 0.033 | [19] -0.048

GLDC (UniProt P23378)
inactive: [5] 0.088 | [11] -0.163

GKAP1 (UniProt Q5VSY0)
inactive: [17] 0.08

GOLIM4 (UniProt F8W785)
inactive: [17] -0.079

GLCE (UniProt O94923)
inactive: [1] 0.041 | [3] 0.006 | [5] -0.041 | [6] -0.002 | [8] -0.156 | [9] 0.043 | [10] -0.012 | [11] 0.018 | [12] 0.004 | [13] 0.018 | [14] -0.051 | [15] -0.091 | [20] 0.177 | [16] -0.051 | [17] -0.025 | [18] -0.111 | [19] -0.005

GLCCI1 (UniProt Q86VQ1)
inactive: [1] -0.081 | [2] 0.069 | [3] -0.011 | [4] 0.024 | [5] -0.04 | [6] -0.019 | [7] -0.06 | [8] -0.127 | [9] -0.017 | [10] 0 | [11] 0.061 | [12] 0 | [13] 0.029 | [14] 0.008 | [15] 0.044 | [20] -0.005 | [16] -0.012 | [17] 0.083 | [18] -0.037 | [19] -0.057

GOSR1 (UniProt E9PCW1)
inactive: [5] -0.19 | [6] -0.19 | [10] -0.038 | [11] 0.102 | [13] 0.085 | [14] 0.033 | [20] 0.145 | [16] -0.036 | [17] -0.024 | [18] -0.094

GPSM2 (UniProt P81274)
inactive: [1] 0.101 | [2] 0.055 | [3] -0.051 | [4] -0.306 | [5] -0.155 | [7] -0.055 | [8] -0.028 | [9] 0.155 | [11] -0.019 | [12] -0.052 | [15] -0.03 | [20] 0.069 | [16] -0.151 | [17] 0.111 | [19] 0.027

GPR180 (UniProt Q86V85)
inactive: [17] 0.212

GOLGA4 (UniProt Q13439)
inactive: [1] -0.023 | [2] -0.02 | [3] -0.013 | [4] 0.117 | [5] -0.181 | [6] -0.001 | [7] -0.147 | [8] 0.103 | [9] -0.186 | [10] 0.103 | [11] -0.145 | [13] 0.133 | [14] -0.046 | [15] 0.039 | [20] 0.184 | [16] -0.049 | [17] 0.079 | [18] -0.013

GOLGB1 isoform 4 (UniProt Q14789)
inactive: [6] 0.022 | [10] -0.086 | [13] -0.054 | [14] -0.049 | [16] -0.064 | [18] 0.049

GNPTAB (UniProt Q3T906)
inactive: [1] -0.01 | [3] 0.036 | [5] -0.18 | [6] -0.006 | [10] -0.064 | [11] 0.158 | [13] 0.026 | [14] -0.041 | [15] 0.094 | [20] 0.192 | [16] -0.233 | [17] 0.042 | [18] -0.165

Two records drawn at random from the list so far, as already listed:
GOLGB1 isoform 4 (UniProt Q14789)
inactive: [6] 0.022 | [10] -0.086 | [13] -0.054 | [14] -0.049 | [16] -0.064 | [18] 0.049

GPSM2 (UniProt P81274)
inactive: [1] 0.101 | [2] 0.055 | [3] -0.051 | [4] -0.306 | [5] -0.155 | [7] -0.055 | [8] -0.028 | [9] 0.155 | [11] -0.019 | [12] -0.052 | [15] -0.03 | [20] 0.069 | [16] -0.151 | [17] 0.111 | [19] 0.027
